Article PMC10412574
Results are given in words; binding and its absence hold for the method and conditions named. Binding seen in cells or lysates may run through a third protein. Some binding calls cover weakened binding; strength is not graded here.

Chains of the proteins cited; added tags and fusions are not shown.
UniProt P60604: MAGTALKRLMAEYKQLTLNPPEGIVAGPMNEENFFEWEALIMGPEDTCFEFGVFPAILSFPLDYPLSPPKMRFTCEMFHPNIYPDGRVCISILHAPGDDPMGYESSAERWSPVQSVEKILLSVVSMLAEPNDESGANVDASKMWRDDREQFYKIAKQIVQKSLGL
UniProt P22314: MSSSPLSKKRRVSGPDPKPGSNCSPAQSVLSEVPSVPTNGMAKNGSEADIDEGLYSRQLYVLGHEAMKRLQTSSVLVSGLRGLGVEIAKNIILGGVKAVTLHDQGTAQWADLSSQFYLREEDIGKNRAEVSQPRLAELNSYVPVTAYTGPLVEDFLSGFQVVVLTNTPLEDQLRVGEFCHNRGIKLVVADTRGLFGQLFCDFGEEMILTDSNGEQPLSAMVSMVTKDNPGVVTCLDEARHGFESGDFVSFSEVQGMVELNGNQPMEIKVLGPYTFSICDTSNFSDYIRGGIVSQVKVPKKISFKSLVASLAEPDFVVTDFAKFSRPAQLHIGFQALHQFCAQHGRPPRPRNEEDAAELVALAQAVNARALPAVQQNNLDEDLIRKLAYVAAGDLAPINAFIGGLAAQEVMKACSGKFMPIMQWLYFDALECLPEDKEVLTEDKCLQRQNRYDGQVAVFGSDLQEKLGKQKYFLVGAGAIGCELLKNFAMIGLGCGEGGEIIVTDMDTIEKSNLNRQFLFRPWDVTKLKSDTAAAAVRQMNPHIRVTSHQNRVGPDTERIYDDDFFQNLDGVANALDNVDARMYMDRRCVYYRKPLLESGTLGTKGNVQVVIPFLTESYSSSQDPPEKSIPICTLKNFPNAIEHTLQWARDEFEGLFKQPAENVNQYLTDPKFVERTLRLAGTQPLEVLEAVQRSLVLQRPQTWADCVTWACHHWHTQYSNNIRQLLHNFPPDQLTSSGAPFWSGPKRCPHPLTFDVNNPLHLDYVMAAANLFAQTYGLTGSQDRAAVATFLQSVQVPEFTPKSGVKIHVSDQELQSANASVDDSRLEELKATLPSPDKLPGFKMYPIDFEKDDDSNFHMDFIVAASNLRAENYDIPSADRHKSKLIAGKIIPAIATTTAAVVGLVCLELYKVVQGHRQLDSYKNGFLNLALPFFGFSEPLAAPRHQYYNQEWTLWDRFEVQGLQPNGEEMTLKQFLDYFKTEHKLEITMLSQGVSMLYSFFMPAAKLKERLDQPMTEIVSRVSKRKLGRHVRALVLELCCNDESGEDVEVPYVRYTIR

Target: endogenous UBE2G2 (human (endogenous in 293 T)) (UniProt P60604)
Assay: co-IP; endogenous proteins; anti-UBA1 or anti-UBE2G2 IP from total lysates of untransfected cells (293 T, 100 nM AF 3 h or vehicle; HCT116-UBA1(C1039A) cells with or without AF), immunoblot; anti-IgG control

binding: binds
Substance: endogenous UBA1 (from UniProt P22314 1-1058) (enzyme)
